# The other results are listed elsewhere or left out.
# How the values were obtained:
# Test in all cases: glycan array binding signal (z-score within array); higher = stronger binding
# Conditions in all cases: glycan notation: IUPAC condensed, linker removed
# [1] = molecular target: GalNAc3S(b1-4)[Fuc(a1-3)]GlcNAc
# In short: (§1)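 The Consortium for Functional Glycomics database supplied 3228 glycan arrays, of which those lacking an available protein sequence were dropped. The binding signal, a within-array Z-score, was averaged across arrays of the same protein sequence and across linkers. Negative scores can be read as non-binding.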
# [2] = molecular target: GalNAc4S6S(b1-4)GlcNAc
# In short: as §1
# [3] = molecular target: GalNAc6S(b1-4)GlcNAc
# In short: as §1
# [4] = molecular target: Glc(a1-4)Glc
# In short: as §1
# [5] = molecular target: Glc(a1-4)Glc(a1-4)Glc(a1-4)Glc
# In short: as §1
# [6] = molecular target: Glc(a1-6)Glc(a1-6)Glc
# In short: as §1
# [7] = molecular target: Glc(a1-6)Glc(a1-6)Glc(a1-6)Glc
# In short: as §1
# [8] = molecular target: Glc(b1-4)Glc
# In short: as §1
# [9] = molecular target: Glc(b1-6)Glc
# In short: as §1
# [10] = molecular target: GlcA(b1-3)Gal
# In short: as §1
# [11] = molecular target: GlcA(b1-3)GlcNAc
# In short: as §1
# [12] = molecular target: GlcA(b1-6)Gal
# In short: as §1
# [13] = molecular target: GlcA3S(b1-3)Gal(b1-4)GlcNAc(b1-2)Man
# In short: as §1
# [14] = molecular target: GlcA3S(b1-3)Gal(b1-4)GlcNAc(b1-3)Gal(b1-4)Glc
# In short: as §1
# [15] = molecular target: GlcNAc(a1-3)Gal(b1-4)GlcNAc
# In short: as §1
# [16] = molecular target: GlcNAc(a1-4)Gal(b1-3)GlcNAc
# In short: as §1
# [17] = molecular target: GlcNAc(a1-4)Gal(b1-4)GalNAc
# In short: as §1
# [18] = molecular target: GlcNAc(a1-4)Gal(b1-4)GlcNAc
# In short: as §1
# [19] = molecular target: GlcNAc(a1-4)Gal(b1-4)GlcNAc(b1-3)Gal(b1-4)Glc
# In short: as §1
# [20] = molecular target: GlcNAc(a1-4)Gal(b1-4)GlcNAc(b1-3)Gal(b1-4)GlcNAc
# In short: as §1
# [21] = molecular target: GlcNAc(a1-4)Gal(b1-4)GlcNAc(b1-3)Gal(b1-4)GlcNAc(b1-3)Gal(b1-4)GlcNAc
# In short: as §1
# [22] = molecular target: GlcNAc(a1-4)Gal(b1-4)GlcNAc(b1-3)Gal(b1-4)[Fuc(a1-3)]GlcNAc(b1-3)Gal(b1-4)[Fuc(a1-3)]GlcNAc
# In short: as §1
# [23] = molecular target: GlcNAc(a1-6)Gal(b1-4)GlcNAc
# In short: as §1
# [24] = molecular target: GlcNAc(b1-2)Gal(b1-3)GalNAc
# In short: as §1
# [25] = molecular target: GlcNAc(b1-2)Man(a1-3)[GlcNAc(b1-2)Man(a1-6)]Man(b1-4)GlcNAc(b1-4)GlcNAc
# In short: as §1
# [26] = molecular target: GlcNAc(b1-2)Man(a1-3)[GlcNAc(b1-2)Man(a1-6)]Man(b1-4)GlcNAc(b1-4)[Fuc(a1-6)]GlcNAc
# In short: as §1
# [27] = molecular target: GlcNAc(b1-2)Man(a1-3)[GlcNAc(b1-4)][GlcNAc(b1-2)Man(a1-6)]Man(b1-4)GlcNAc(b1-4)GlcNAc
# In short: as §1
# [28] = molecular target: GlcNAc(b1-2)Man(a1-3)[GlcNAc(b1-4)][GlcNAc(b1-2)Man(a1-6)]Man(b1-4)GlcNAc(b1-4)[Fuc(a1-6)]GlcNAc
# In short: as §1
# [29] = molecular target: GlcNAc(b1-2)[GlcNAc(b1-4)]Man(a1-3)[GlcNAc(b1-2)Man(a1-6)]Man(b1-4)GlcNAc(b1-4)GlcNAc
# In short: as §1
# [30] = molecular target: GlcNAc(b1-2)[GlcNAc(b1-4)]Man(a1-3)[GlcNAc(b1-4)][GlcNAc(b1-2)Man(a1-6)]Man(b1-4)GlcNAc(b1-4)GlcNAc
# In short: as §1
# [31] = molecular target: GlcNAc(b1-2)[GlcNAc(b1-4)]Man(a1-3)[GlcNAc(b1-4)][GlcNAc(b1-2)[GlcNAc(b1-6)]Man(a1-6)]Man(b1-4)GlcNAc(b1-4)GlcNAc
# In short: as §1
# [32] = molecular target: GlcNAc(b1-2)[GlcNAc(b1-4)]Man(a1-3)[GlcNAc(b1-4)][GlcNAc(b1-2)[GlcNAc(b1-6)]Man(a1-6)]Man(b1-4)GlcNAc(b1-4)[Fuc(a1-6)]GlcNAc
# In short: as §1
# [33] = molecular target: GlcNAc(b1-2)[GlcNAc(b1-6)]Man(a1-6)[GlcNAc(b1-2)Man(a1-3)]Man(b1-4)GlcNAc(b1-4)GlcNAc
# In short: as §1
# [34] = molecular target: GlcNAc(b1-2)[GlcNAc(b1-6)]Man(a1-6)[GlcNAc(b1-2)Man(a1-3)]Man(b1-4)GlcNAc(b1-4)[Fuc(a1-6)]GlcNAc
# In short: as §1
# [35] = molecular target: GlcNAc(b1-2)[GlcNAc(b1-6)]Man(a1-6)[GlcNAc(b1-4)][GlcNAc(b1-2)Man(a1-3)]Man(b1-4)GlcNAc(b1-4)GlcNAc
# In short: as §1
# [36] = molecular target: GlcNAc(b1-3)Fuc
# In short: as §1
# [37] = molecular target: GlcNAc(b1-3)Gal
# In short: as §1
# [38] = molecular target: GlcNAc(b1-3)Gal(b1-3)GalNAc
# In short: as §1
binder,measurement,setting,value
PX14343I-pdi-501-30-501 (Parabacteroides distasonis) (protein) SDQYSTETFWKTKEHASAGIMGCYNALKLWRSLHTMEFDMLTANAMPYNEANGTQAIGKGEHLSTTALIGSLWKNCYVGIGRTNTFIANVGGVDMDESEKAKMVGEAKFLRAFYYLSLVDKFGGVPLIIDAPNADEQAELPRNSKEEVVNQIVKDLEEAAAVLPDTYASSDLGRATKGAALALKARTLLYNSRWAEAAQAAKQVMESGVYQLFNDYRHFFSEDNKYNCEVIFDIEAKLPEYPTDYDQNIWRLNRPAPLKELVDTYLCVDGKTIEESPLYDPTRPYENRDPRLLKSIVCIGYPYLGKTITKEDVATTGFGVKKYTSYEDDVTIPLVERSAFNFILIRYAEVLLTYAEAQNEASGPDQSVYDAINQLRRRPDINMPEVPKGLTKDQMREVIRRERRIELTFEGLYYSDILRWKTAEKENNGMMHNYEGIEVVKRSFNPKRDYLWPIPYNQTVLNPNLEQNPNWD,glycan array binding signal (z-score),[1],-0.495
same,glycan array binding signal (z-score),[2],0.126
same,glycan array binding signal (z-score),[3],-0.518
same,glycan array binding signal (z-score),[4],0.63
same,glycan array binding signal (z-score),[5],-0.823
same,glycan array binding signal (z-score),[6],0.049
same,glycan array binding signal (z-score),[7],0.048
same,glycan array binding signal (z-score),[8],-0.425
same,glycan array binding signal (z-score),[9],-0.768
same,glycan array binding signal (z-score),[10],0.102
same,glycan array binding signal (z-score),[11],0.786
same,glycan array binding signal (z-score),[12],1.09
same,glycan array binding signal (z-score),[13],-0.55
same,glycan array binding signal (z-score),[14],-0.377
same,glycan array binding signal (z-score),[15],-0.157
same,glycan array binding signal (z-score),[16],-0.546
same,glycan array binding signal (z-score),[17],-0.61
same,glycan array binding signal (z-score),[18],-0.204
same,glycan array binding signal (z-score),[19],0.602
same,glycan array binding signal (z-score),[20],-0.88
same,glycan array binding signal (z-score),[21],-0.211
same,glycan array binding signal (z-score),[22],1.69
same,glycan array binding signal (z-score),[23],1.05
same,glycan array binding signal (z-score),[24],0.654
same,glycan array binding signal (z-score),[25],-0.171
same,glycan array binding signal (z-score),[26],0.468
same,glycan array binding signal (z-score),[27],-0.286
same,glycan array binding signal (z-score),[28],-1.08
same,glycan array binding signal (z-score),[29],-0.486
same,glycan array binding signal (z-score),[30],0.48
same,glycan array binding signal (z-score),[31],0.146
same,glycan array binding signal (z-score),[32],-0.084
same,glycan array binding signal (z-score),[33],-0.053
same,glycan array binding signal (z-score),[34],-0.797
same,glycan array binding signal (z-score),[35],-0.645
same,glycan array binding signal (z-score),[36],0.489
same,glycan array binding signal (z-score),[37],0.184
same,glycan array binding signal (z-score),[38],0.325

# Exported with bars between the fields: part of the list above
binder | measurement | setting | value
PX14343I-pdi-501-30-501 (Parabacteroides distasonis) (protein) SDQYSTETFWKTKEHASAGIMGCYNALKLWRSLHTMEFDMLTANAMPYNEANGTQAIGKGEHLSTTALIGSLWKNCYVGIGRTNTFIANVGGVDMDESEKAKMVGEAKFLRAFYYLSLVDKFGGVPLIIDAPNADEQAELPRNSKEEVVNQIVKDLEEAAAVLPDTYASSDLGRATKGAALALKARTLLYNSRWAEAAQAAKQVMESGVYQLFNDYRHFFSEDNKYNCEVIFDIEAKLPEYPTDYDQNIWRLNRPAPLKELVDTYLCVDGKTIEESPLYDPTRPYENRDPRLLKSIVCIGYPYLGKTITKEDVATTGFGVKKYTSYEDDVTIPLVERSAFNFILIRYAEVLLTYAEAQNEASGPDQSVYDAINQLRRRPDINMPEVPKGLTKDQMREVIRRERRIELTFEGLYYSDILRWKTAEKENNGMMHNYEGIEVVKRSFNPKRDYLWPIPYNQTVLNPNLEQNPNWD | glycan array binding signal (z-score) | [19] | 0.602
same | glycan array binding signal (z-score) | [20] | -0.88
